# Assay results published in PubChem BioAssay AID248 (DTP/NCI, 2004).
# The list is a part of this screen's results and no random one: its compounds were picked by chemical class. Other doses and runs of a compound may be missing. T/C is the treated group as % of the vehicle group. For survival time, the PubChem record calls one and a half times the control and up active, and a quarter to a half above the control has no call in these data; cut-offs in other NCI protocols can differ. Schedule codes are those of the source, read here as Q, the interval in days (D) or hours (H), X, the number of doses. Some T/C values carry the count of animals alive at the toxicity check (mostly the fifth day); where neither a count nor a note follows, no animal had died by that day. Some entries were tested several times; their values stand side by side, smallest first. Some schedule codes hold Z or #, which are not explained here.
# Test system: L1210 leukemia ip in BDF1 mice, survival T/C
# Experiment: NCI In Vivo Anticancer Drug Screen. Data for tumor model L1210 Leukemia (intraperitoneal) in B6D2F1 (BDF1) mice
# Conditions: T/C endpoint: mean survival time, higher T/C = longer survival
smiles,measurement,setting,value
NC(=O)c1[nH]cnc1/N=N\N(CCCl)CCCl,T/C,"dose: 25.0 mg/kg/injection, schedule: Q08DX024 (ip), vehicle: carboxymethylcellulose (CMC)",286 % of control
same,T/C,"dose: 25.0 mg/kg/injection, schedule: Q## X005 (ip), vehicle: carboxymethylcellulose (CMC)",122 % of control
same,T/C,"dose: 25.0 mg/kg/injection, schedule: Q#A X034 (ip), vehicle: carboxymethylcellulose (CMC)",136 % of control
same,T/C,"dose: 25.0 mg/kg/injection, schedule: Q#A X Z (ip), vehicle: carboxymethylcellulose (CMC)",190 % of control
same,T/C,"dose: 27.0 mg/kg/injection, schedule: Q06HX008 (ip), vehicle: carboxymethylcellulose (CMC)",161 % of control
same,T/C,"dose: 30.0 mg/kg/injection, schedule: Q01DX001 (ip), vehicle: carboxymethylcellulose (CMC)",121 % of control
same,T/C,"dose: 30.0 mg/kg/injection, schedule: Q03DX Z (ip), vehicle: carboxymethylcellulose (CMC)",205 and 232 % of control
same,T/C,"dose: 30.0 mg/kg/injection, schedule: Q07DX Z (ip), vehicle: carboxymethylcellulose (CMC)",136 % of control
same,T/C,"dose: 33.0 mg/kg/injection, schedule: Q01DX006 (iv), vehicle: carboxymethylcellulose (CMC)",164 % of control
same,T/C,"dose: 33.0 mg/kg/injection, schedule: Q01DX Z (im), vehicle: carboxymethylcellulose (CMC)",156 % of control
same,T/C,"dose: 33.0 mg/kg/injection, schedule: Q01DX Z (ip), vehicle: carboxymethylcellulose (CMC)",246 % of control
same,T/C,"dose: 33.0 mg/kg/injection, schedule: Q01DX Z (oral), vehicle: carboxymethylcellulose (CMC)",180 % of control
same,T/C,"dose: 33.0 mg/kg/injection, schedule: Q01DX Z (sc), vehicle: carboxymethylcellulose (CMC)",144 % of control
same,T/C,"dose: 37.5 mg/kg/injection, schedule: Q01DX005 (oral), vehicle: carboxymethylcellulose (CMC)",115 % of control
same,T/C,"dose: 37.5 mg/kg/injection, schedule: Q01DX009 (oral), vehicle: carboxymethylcellulose (CMC)",131 % of control
same,T/C,"dose: 37.5 mg/kg/injection, schedule: Q01DX017 (oral), vehicle: steroid suspending solution",96 and 108 % of control [7 of 8 alive]
same,T/C,"dose: 37.5 mg/kg/injection, schedule: Q03HX008 (oral), vehicle: carboxymethylcellulose (CMC)",210 % of control
same,T/C,"dose: 37.5 mg/kg/injection, schedule: Q03HX016 (ip), vehicle: carboxymethylcellulose (CMC)",478 % of control
same,T/C,"dose: 37.5 mg/kg/injection, schedule: Q06HX012 (oral), vehicle: steroid suspending solution",122 % of control
same,T/C,"dose: 37.5 mg/kg/injection, schedule: Q06HX020 (oral), vehicle: steroid suspending solution",105 % of control
same,T/C,"dose: 37.5 mg/kg/injection, schedule: Q06HX068 (oral), vehicle: steroid suspending solution",185 % of control
same,T/C,"dose: 37.5 mg/kg/injection, schedule: Q## X009 (oral), vehicle: carboxymethylcellulose (CMC)",121 % of control
same,T/C,"dose: 37.5 mg/kg/injection, schedule: Q#A X Z (ip), vehicle: carboxymethylcellulose (CMC)",180 % of control
same,T/C,"dose: 39.0 mg/kg/injection, schedule: Q01DX009 (ip), vehicle: carboxymethylcellulose (CMC)",227 % of control
same,T/C,"dose: 39.0 mg/kg/injection, schedule: Q01DX017 (ip), vehicle: carboxymethylcellulose (CMC)",180 % of control
same,T/C,"dose: 39.0 mg/kg/injection, schedule: Q01DX Z (ip), vehicle: carboxymethylcellulose (CMC)",175 and 305 % of control
same,T/C,"dose: 41.5 mg/kg/injection, schedule: Q04DX003 (ip), vehicle: other",151 and 162 % of control
same,T/C,"dose: 43.5 mg/kg/injection, schedule: Q01DX009 (ip), vehicle: other","196, 201, 209 % of control"
same,T/C,"dose: 44.0 mg/kg/injection, schedule: Q01DX001 (ip), vehicle: carboxymethylcellulose (CMC)",130 % of control
same,T/C,"dose: 44.0 mg/kg/injection, schedule: Q03DX Z (ip), vehicle: carboxymethylcellulose (CMC)",325 % of control
same,T/C,"dose: 44.0 mg/kg/injection, schedule: Q07DX Z (ip), vehicle: carboxymethylcellulose (CMC)",151 % of control
same,T/C,"dose: 45.0 mg/kg/injection, schedule: Q06HX008 (ip), vehicle: carboxymethylcellulose (CMC)",232 % of control
same,T/C,"dose: 46.1 mg/kg/injection, schedule: Q01DX001 (ip), vehicle: steroid suspending solution",135 % of control
same,T/C,"dose: 50.0 mg/kg/injection, schedule: Q01DX001 (ip), vehicle: carboxymethylcellulose (CMC)",134 % of control
same,T/C,"dose: 50.0 mg/kg/injection, schedule: Q01DX001 (ip), vehicle: saline",106 and 116 % of control
same,T/C,"dose: 50.0 mg/kg/injection, schedule: Q01DX001 (ip), vehicle: steroid suspending solution, evaluated on day 6",194 % of control
same,T/C,"dose: 50.0 mg/kg/injection, schedule: Q01DX001 (ip), vehicle: steroid suspending solution, evaluated on day 28",130 % of control
same,T/C,"dose: 50.0 mg/kg/injection, schedule: Q01DX001 (ip), vehicle: steroid suspending solution, evaluated on day 60",194 % of control
same,T/C,"dose: 50.0 mg/kg/injection, schedule: Q01DX005 (ip), vehicle: carboxymethylcellulose (CMC)",139 and 182 % of control
same,T/C,"dose: 50.0 mg/kg/injection, schedule: Q01DX006 (iv), vehicle: carboxymethylcellulose (CMC)",185 % of control [5 of 6 alive]
same,T/C,"dose: 50.0 mg/kg/injection, schedule: Q01DX009 (ip), vehicle: carboxymethylcellulose (CMC)",206 % of control
same,T/C,"dose: 50.0 mg/kg/injection, schedule: Q01DX009 (ip), vehicle: water",223 % of control
same,T/C,"dose: 50.0 mg/kg/injection, schedule: Q01DX009 (oral), vehicle: carboxymethylcellulose (CMC)",192 % of control
same,T/C,"dose: 50.0 mg/kg/injection, schedule: Q01DX017 (ip), vehicle: carboxymethylcellulose (CMC)","267, 273, 280 % of control"
same,T/C,"dose: 50.0 mg/kg/injection, schedule: Q01DX Z (im), vehicle: carboxymethylcellulose (CMC)",158 % of control
same,T/C,"dose: 50.0 mg/kg/injection, schedule: Q01DX Z (ip), vehicle: carboxymethylcellulose (CMC)","285, 312, 318 % of control"
same,T/C,"dose: 50.0 mg/kg/injection, schedule: Q01DX Z (oral), vehicle: carboxymethylcellulose (CMC)",187 and 250 % of control
same,T/C,"dose: 50.0 mg/kg/injection, schedule: Q01DX Z (sc), vehicle: carboxymethylcellulose (CMC)",160 % of control
same,T/C,"dose: 50.0 mg/kg/injection, schedule: Q02DX009 (ip), vehicle: carboxymethylcellulose (CMC)","213, 251, 259 % of control"
same,T/C,"dose: 50.0 mg/kg/injection, schedule: Q03HX003 (ip), vehicle: carboxymethylcellulose (CMC)",137 % of control
same,T/C,"dose: 50.0 mg/kg/injection, schedule: Q03HX008 (ip), vehicle: carboxymethylcellulose (CMC)",262 % of control
same,T/C,"dose: 50.0 mg/kg/injection, schedule: Q03HX008 (ip), vehicle: water",685 % of control
same,T/C,"dose: 50.0 mg/kg/injection, schedule: Q04DX002 (ip), vehicle: water",122 % of control
same,T/C,"dose: 50.0 mg/kg/injection, schedule: Q04DX003 (ip), vehicle: carboxymethylcellulose (CMC)",152 % of control
same,T/C,"dose: 50.0 mg/kg/injection, schedule: Q04DX005 (ip), vehicle: carboxymethylcellulose (CMC)","117, 177, 190 % of control"
same,T/C,"dose: 50.0 mg/kg/injection, schedule: Q08DX002 (ip), vehicle: carboxymethylcellulose (CMC)",132 % of control
same,T/C,"dose: 50.0 mg/kg/injection, schedule: Q08DX003 (ip), vehicle: carboxymethylcellulose (CMC)",126 % of control
same,T/C,"dose: 50.0 mg/kg/injection, schedule: Q08DX024 (ip), vehicle: carboxymethylcellulose (CMC)",348 % of control
same,T/C,"dose: 50.0 mg/kg/injection, schedule: Q## X003 (ip), vehicle: carboxymethylcellulose (CMC)",118 % of control
same,T/C,"dose: 50.0 mg/kg/injection, schedule: Q## X005 (ip), vehicle: carboxymethylcellulose (CMC)",175 % of control
same,T/C,"dose: 50.0 mg/kg/injection, schedule: Q#A X034 (ip), vehicle: carboxymethylcellulose (CMC)",318 % of control
same,T/C,"dose: 53.0 mg/kg/injection, schedule: Q01DX001 (ip), vehicle: other",121 % of control
